# In the supplement of paper PMC10735217:
# Structures can show the parent of a compound that is named as a salt. Some of the results follow. Single values are uncertain here, since repeats match poorly.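 The human kidney-derived cells carry a stably integrated construct of eight TEAD-binding elements driving luciferase, read by luminescence in a drug-repurposing library screen. A compound counts as a hit when its signal is more than five robust Z scores above the plate mean.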
# System: HEK293A TEAD-LUC reporter
# Experiment: TEAD-luciferase reporter activity (YAP activation), robust Z score vs plate; higher = stronger YAP/TEAD activation
# Settings: 24 h
Compound,TEAD-luciferase reporter activity (compound concentration: 200 nM),TEAD-luciferase reporter activity (compound concentration: 2 uM),TEAD-luciferase reporter activity (compound concentration: 10 uM)
NC(=O)N1c2ccccc2CC(O)c2ccccc21 (configuration not stated) [licarbazepine],inactive: -1.95,inactive: 0.625,inactive: 0.508
CC(=O)N1Cc2ccccc2CC2(CCCCN2C)C1 (configuration not stated),inactive: -0.682,,inactive: -0.494
Cc1nc2sccn2c(=O)c1CCN1CCC(=C(c2ccc(F)cc2)c2ccc(F)cc2)CC1 [Ritanserin],inactive: -0.372,inactive: -1.02,inactive: -3.18
C#CC(C)(CC)OC(=O)c1ccccc1C(=O)O (configuration not stated) [Phthalofyne],inactive: -0.0522,,inactive: 1.17
CC/C(=C(\c1ccc(I)cc1)c1ccc(OCCN2CCCC2)cc1)c1ccccc1 [Idoxifene],inactive: 3.24,inactive: -0.492,inactive: -1.36
CC=CCC(C)c1cc(=O)c2c(C)cc3c(c2o1)C(=O)c1c(O)c(C2CC(C)(N(C)C)C(O)C(C)O2)cc(C2CC(N(C)C)C(O)C(C)O2)c1C3=O (configuration not stated),inactive: -0.322,inactive: -1.11,inactive: -0.435
CN(C)CCOC(c1cccs1)c1ccnn1C (configuration not stated) [Dilopetine],inactive: -0.939,inactive: -1.1,inactive: 1.41
NNc1cc2c(nn1)CCN(C(=O)c1ccccc1)C2 [Endralazine],inactive: -0.0194,inactive: -0.712,inactive: -1.42
CCOCC(O)COc1ccc(NC(=O)CC[S+](C)C)cc1 (configuration not stated) [suplatast tosilate],inactive: -2.67,inactive: 0.186,inactive: -1.08
CO[C@@H]1[C@H](OC(=O)/C=C/c2ccc(OCCN(C)C)cc2)CC[C@]2(CO2)[C@H]1[C@]1(C)OC1CC=C(C)C (some centres not stated) [beloranib hemioxalate],inactive: -0.852,inactive: -1.03,inactive: -1.03
Brc1c(NC2=NCCN2)ccc2nccnc12 [brimonidine],,inactive: -1.96,
Brc1c(NC2=NCCN2)ccc2nccnc12 [brimonidine tartrate],,inactive: -0.519,
Brc1c(NC2=NCCN2)ccc2nccnc12,inactive: -0.87,inactive: 0.422,inactive: 1.21
CCN1CCN(Cc2ccc(-c3cc4c(N[C@H](C)c5ccccc5)ncnc4[nH]3)cc2)CC1,inactive: 0.215,inactive: -1.8,inactive: -2.28
CNC(=O)c1cccc2c(Nc3ccc(NS(C)(=O)=O)cc3OC)c3cccc(C)c3nc12,inactive: -2.03,inactive: -0.162,inactive: -0.133
O=C(Cn1ccnc1[N+](=O)[O-])NCc1ccccc1 [benznidazole],inactive: -1.87,inactive: -1.02,inactive: -0.37
COc1ccc(CCNC(=O)c2ccc([N+](=O)[O-])cc2)cc1OC,inactive: 0.753,inactive: -0.799,inactive: -0.656
O=C1[O][Pt-2]2([NH2+]CC(CO)(CO)C[NH2+]2)[O]C(=O)C12CCC2 [Zeniplatin],inactive: 0.457,inactive: -0.119,inactive: 0.598
CCCCNC(=O)NS(=O)(=O)c1ccc(C)cc1,inactive: -1.11,,inactive: 0.0809

Compound,TEAD-luciferase reporter activity (compound concentration: 200 nM),TEAD-luciferase reporter activity (compound concentration: 2 uM),TEAD-luciferase reporter activity (compound concentration: 10 uM)
CCCCNC(=O)NS(=O)(=O)c1ccc(C)cc1 [Tolbutamide],,inactive: 0.81,
Cn1cc(NC(=O)c2cc(NC(=O)c3cc(NC=O)cn3C)cn2C)cc1C(=O)NCCC(=N)N,inactive: 0.49,inactive: 0.509,inactive: -0.503
Nc1nc2c(Cc3ccsc3)c(N)[nH]c2c(=O)[nH]1,inactive: -0.391,inactive: -0.542,inactive: 3.88
CCCCCCCCCCOc1ccc(C(=O)Nc2cc(C(=O)NCCCC)ccc2SC)cc1,inactive: -1.19,inactive: -0.813,inactive: 0.989
CS(=O)(=O)Nc1ccc(C(O)CNCC2CCc3ccccc3C2=O)cc1 (configuration not stated),inactive: -1.53,inactive: -0.029,inactive: -0.669
CC#CCOc1cc(/C=C/C(=O)Nc2ccccc2C(=O)O)ccc1OC,inactive: -1.65,inactive: -2.11,inactive: -1.04
O=C1NC(=O)C2(N1)c1cc(F)ccc1-c1ccc(F)cc12,inactive: -1.26,inactive: -0.972,inactive: 0.193
CCOC(=O)[C@H](C)NP(=O)(COCCn1cnc2c(NC3CC3)nc(N)nc21)N[C@@H](C)C(=O)OCC,inactive: 2.42,inactive: -1.22,inactive: -0.549
C[C@@H](c1ccc2c(c1)[nH]c1ccccc12)n1ccnc1,inactive: -1.02,inactive: -0.648,inactive: -1.06
CCC(C)(C)NCC(O)COc1ccccc1C#N (configuration not stated) [Penirolol],inactive: 0.472,inactive: -0.466,inactive: 4.59
Clc1ccc2c(c1)C(c1ccccc1Cl)=NCc1cncnc1-2,inactive: -2.33,inactive: -0.431,inactive: 1.32
CC(COc1ccccc1)NN (configuration not stated),inactive: -0.46,inactive: -2.11,inactive: -0.288
O=C(C1CCCC1)N1CCCN(c2nc3ncccc3o2)CC1,inactive: -0.964,,inactive: 4.21
CCCCCCCCCCCCCC[N+](C)(C)CCC[Si](OC)(OC)OC,inactive: -1.32,inactive: 0.222,inactive: 3.44
CCCCCCCC/C=C\CCCCCCCC(=O)OC(CO)CO [2-Oleoylglycerol],inactive: -1.72,inactive: 1.14,inactive: 1.13
OB1OCc2cc(Cl)ccc21,inactive: -0.543,inactive: -0.673,inactive: -1.04
CC1=C(Nc2ccc(C3=NNC(=O)CC3C)cc2)CCC1=O (configuration not stated),inactive: -0.728,inactive: -0.375,inactive: -1.51
C[C@@H]1CCN(C(=O)CC#N)C[C@@H]1N(C)c1ncnc2[nH]ccc12 [tofacitinib (controlled release)],inactive: -0.182,inactive: -1.66,inactive: 0.825
Cc1c(Br)c(=O)n(C2CCCC2)c2nc(Nc3ccc(N4CCN(C)CC4)cc3)ncc12,inactive: -0.515,inactive: -0.871,inactive: 0.741

# Single entries from the list.
# Entry for CCCCCCCCCCCCCC[N+](C)(C)CCC[Si](OC)(OC)OC under TEAD-luciferase reporter activity (compound concentration: 200 nM): inactive: -1.32
# Entry for Cn1cc(NC(=O)c2cc(NC(=O)c3cc(NC=O)cn3C)cn2C)cc1C(=O)NCCC(=N)N under TEAD-luciferase reporter activity (compound concentration: 200 nM): inactive: 0.49
# Entry for C[C@@H]1CCN(C(=O)CC#N)C[C@@H]1N(C)c1ncnc2[nH]ccc12 [tofacitinib (controlled release)] under TEAD-luciferase reporter activity (compound concentration: 10 uM): inactive: 0.825

# (continued)

Compound,TEAD-luciferase reporter activity (compound concentration: 200 nM),TEAD-luciferase reporter activity (compound concentration: 2 uM),TEAD-luciferase reporter activity (compound concentration: 10 uM)
CCN1CCC(c2cc(C)c3nc(-c4cc5c(C)nc(C)cn5n4)cc(=O)n3c2)CC1,inactive: 0.554,,inactive: -2.06
C[C@]1(Cn2ccnn2)[C@H](C(=O)O)N2C(=O)C[C@H]2S1(=O)=O [Tazobactam],inactive: 1.09,inactive: -1.08,inactive: -0.848
CCN(CC)Cc1ccc(Nc2ccnc3cc(Cl)ccc23)cc1O,inactive: -0.0856,inactive: 0.517,inactive: -0.918
C[C@@H](/N=C(\NC#N)Nc1ccc(C#N)cc1)C(C)(C)C,inactive: -0.737,inactive: 3.55,inactive: -1.31
C[C@@H](Sc1nc(N)cc(Cl)n1)c1cc2ccoc2cn1,inactive: 0.882,inactive: -1.78,inactive: 4.33
C[C@@H](N1CCN(c2ccc(-n3cnnn3)cc2)C1=O)[C@](O)(Cn1cncn1)c1ccc(F)cc1F,inactive: -1.6,inactive: -0.237,inactive: 0.288
CC(=O)Oc1cccc(C)c1,inactive: -0.128,inactive: -1.48,inactive: 2.94
CC(C)c1ccc(C(=O)N(C)CCN2CCN(c3cccc4ccoc34)CC2)cc1 [befiperide],inactive: -1.24,inactive: -0.269,inactive: 2.48
C[C@@H]1CC2C3CCC4=CC(=O)C=CC4(C)C3=CCC2(C)[C@@]1(O)C(=O)CO (some centres not stated),inactive: -0.131,inactive: 1.07,inactive: 0.416
Cn1cnc2c1c(=O)n(CC(=O)O)c(=O)n2C,inactive: 1.38,inactive: -0.844,inactive: -0.411
CC(CN1CCCC1)C(=O)c1ccc(C(F)(F)F)cc1 (configuration not stated),inactive: -1.09,inactive: -0.299,inactive: -0.37
Cc1ccccc1N1C(=O)c2cc(S(N)(=O)=O)c(Cl)cc2NC1C (configuration not stated) [metolazone],inactive: -0.449,inactive: 0.00937,inactive: 1.32
Nc1ccc(S(=O)(=O)NC(=O)c2ccccc2)cc1,inactive: -0.466,inactive: -0.423,inactive: 1.45
Cc1ccc(Oc2ccccc2-c2csc(N=C3NCCCN3)n2)c(C)c1 [Abafungin],inactive: 0.49,inactive: 1.01,inactive: 0.443
NS(=O)(=O)Cc1noc2ccccc12 [Zonisamide],inactive: -0.076,,inactive: -0.945
NS(=O)(=O)Cc1noc2ccccc12 [zonisamide],,inactive: 0.968,
"Nc1ccc(C(=O)O)c(O)c1 [4-aminosalicylic acid, Block]",inactive: 3.94,inactive: -2.17,inactive: -0.0803
O=C(C(=O)N1CCn2nc(-c3ccc(F)cc3)c(-c3ccncc3)c2N1)c1ccccc1,inactive: -1.77,inactive: -1.46,inactive: 1.19
C[C@H](N)C(=O)N[C@@H](CCC(N)=O)C(=O)N1CCC[C@H]1C(=O)N[C@@H](Cc1ccc(O)cc1)C(=O)N1CCC[C@H]1C(=O)N[C@@H](CCC(N)=O)C(=O)NCC(=O)N[C@@H](CC(N)=O)C(=O)N[C@@H](Cc1c[nH]cn1)C(=O)N[C@@H](CCC(=O)O)C(=O)N[C@@H](C)C(=O)N[C@@H](CO)C(=O)N[C@@H](Cc1ccc(O)cc1)C(=O)NCC(=O)O,inactive: -0.83,inactive: 0.779,inactive: -0.108
